The values below come from article doi:10.1101/2021.03.31.437839.

Amino acid sequences for entries named in this document (tags omitted).
UniProt Q92841: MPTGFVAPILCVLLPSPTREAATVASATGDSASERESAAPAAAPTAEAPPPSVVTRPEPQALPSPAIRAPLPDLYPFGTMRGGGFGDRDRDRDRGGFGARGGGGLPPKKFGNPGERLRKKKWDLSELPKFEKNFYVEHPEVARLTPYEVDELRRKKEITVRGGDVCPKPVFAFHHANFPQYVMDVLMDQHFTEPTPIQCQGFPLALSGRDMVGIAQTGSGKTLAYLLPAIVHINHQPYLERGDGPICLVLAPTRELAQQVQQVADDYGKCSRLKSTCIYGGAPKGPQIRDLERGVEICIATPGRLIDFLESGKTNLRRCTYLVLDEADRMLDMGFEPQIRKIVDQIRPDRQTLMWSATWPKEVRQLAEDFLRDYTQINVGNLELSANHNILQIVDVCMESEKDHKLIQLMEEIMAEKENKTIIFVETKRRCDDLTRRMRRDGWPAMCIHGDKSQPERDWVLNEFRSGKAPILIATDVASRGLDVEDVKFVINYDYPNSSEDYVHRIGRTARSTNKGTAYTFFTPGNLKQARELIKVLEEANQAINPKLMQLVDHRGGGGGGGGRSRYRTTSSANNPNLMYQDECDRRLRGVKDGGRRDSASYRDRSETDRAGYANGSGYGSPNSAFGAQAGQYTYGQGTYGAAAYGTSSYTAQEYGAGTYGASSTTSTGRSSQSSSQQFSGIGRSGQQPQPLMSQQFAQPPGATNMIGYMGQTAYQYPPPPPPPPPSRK
UniProt P84022: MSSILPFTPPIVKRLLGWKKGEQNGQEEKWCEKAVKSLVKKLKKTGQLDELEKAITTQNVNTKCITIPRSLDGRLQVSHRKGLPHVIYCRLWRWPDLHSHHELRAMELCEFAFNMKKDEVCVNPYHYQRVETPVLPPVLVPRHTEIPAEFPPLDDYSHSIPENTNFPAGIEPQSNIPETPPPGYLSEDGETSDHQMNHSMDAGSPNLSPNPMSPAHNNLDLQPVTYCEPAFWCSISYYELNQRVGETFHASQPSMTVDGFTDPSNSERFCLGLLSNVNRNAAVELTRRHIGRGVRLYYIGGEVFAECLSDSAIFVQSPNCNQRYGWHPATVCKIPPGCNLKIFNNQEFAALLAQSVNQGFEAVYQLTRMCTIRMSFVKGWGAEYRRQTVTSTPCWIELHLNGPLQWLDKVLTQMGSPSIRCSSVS
UniProt Q9GZN2: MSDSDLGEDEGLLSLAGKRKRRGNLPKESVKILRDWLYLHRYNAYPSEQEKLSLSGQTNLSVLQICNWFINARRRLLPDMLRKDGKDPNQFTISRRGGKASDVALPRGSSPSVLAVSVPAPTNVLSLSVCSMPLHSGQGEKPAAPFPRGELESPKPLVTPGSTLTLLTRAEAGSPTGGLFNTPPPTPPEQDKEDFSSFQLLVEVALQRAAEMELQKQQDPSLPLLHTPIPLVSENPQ

No constants are given. Whether binding was seen depends on the method and setting. Binding seen in cells or lysates may run through a third protein. Some results given as binding are weak or reduced against the parent protein; the word gives no strength.

What all share (assay): co-IP
One experiment addresses HA-DDX17 (human) (UniProt Q92841).
The target of a further experiment is HA-SMAD3 (human) (UniProt P84022).
Experiment [1] has as its target FLAG-SMAD3 (SMAD Family Member 3) (human) (UniProt P84022).

For the substance “FLAG-SMAD3 (SMAD Family Member 3) (from UniProt P84022 1-425)”, the binding result in the experiment with HA-DDX17 (human) is “binds”.
Consider “FLAG-TGIF2 (TGFB-induced factor homeobox 2) (from UniProt Q9GZN2 1-237)”, for which, in the experiment with HA-SMAD3 (human), the binding entry is “binds”.
Turning to HA-TGIF2 (from UniProt Q9GZN2 1-237), in experiment [1], the binding result was “binds”.
